# Literature values, collected in patent US6159501A, “Modified release multiple-units dosage composition for release of opioid compounds” (Nycomed Danmark A/S, priority 1996, dated 2000).
# Details: cancer patients; cited from earlier work
structure (smiles),measurement,value
CN1CC[C@]23c4c5ccc(O)c4O[C@H]2[C@@H](O)C=C[C@H]3[C@H]1C5 [morphine],steady-state plasma concentrations associated with satisfactory analgesia,16 to 364 ng/mL
